Values of other authors in patent US20150174273A1, “IMAGING AND THERAPEUTIC METHODS FOR TREATING PARATHYROID TUMORS” (EMORY UNIVERSITY, priority 2012, published 2015).

System: human parathyroid tumors
Conditions: PT adenomas; cited from earlier work

[99Tc].[C-]#[N+]CC(C)(C)OC.[C-]#[N+]CC(C)(C)OC.[C-]#[N+]CC(C)(C)OC.[C-]#[N+]CC(C)(C)OC.[C-]#[N+]CC(C)(C)OC.[C-]#[N+]CC(C)(C)OC [^99mTc MIBI]
share of adenomas visualized: 70%-90
